Measured values from publication PMC11312485.
Results are given in words; binding and its absence hold for the method and conditions named. In cells and extracts the contact can be indirect. Some results given as binding are weak or reduced against the parent protein; the word gives no strength.

Chains of the proteins cited; added tags and fusions are not shown.
UniProt Q12834: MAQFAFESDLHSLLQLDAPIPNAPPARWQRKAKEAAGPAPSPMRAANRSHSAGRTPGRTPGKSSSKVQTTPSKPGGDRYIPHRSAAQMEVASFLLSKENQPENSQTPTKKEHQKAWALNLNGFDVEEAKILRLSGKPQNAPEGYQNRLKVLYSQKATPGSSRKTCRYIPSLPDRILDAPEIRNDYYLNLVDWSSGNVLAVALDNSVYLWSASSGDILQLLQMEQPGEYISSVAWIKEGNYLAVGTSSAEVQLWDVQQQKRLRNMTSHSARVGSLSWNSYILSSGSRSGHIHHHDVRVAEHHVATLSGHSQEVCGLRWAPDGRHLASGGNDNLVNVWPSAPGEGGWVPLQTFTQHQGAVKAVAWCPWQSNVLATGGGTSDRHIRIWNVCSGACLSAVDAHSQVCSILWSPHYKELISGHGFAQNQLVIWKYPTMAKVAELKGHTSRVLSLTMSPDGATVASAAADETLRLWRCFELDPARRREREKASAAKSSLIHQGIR
UniProt P27694: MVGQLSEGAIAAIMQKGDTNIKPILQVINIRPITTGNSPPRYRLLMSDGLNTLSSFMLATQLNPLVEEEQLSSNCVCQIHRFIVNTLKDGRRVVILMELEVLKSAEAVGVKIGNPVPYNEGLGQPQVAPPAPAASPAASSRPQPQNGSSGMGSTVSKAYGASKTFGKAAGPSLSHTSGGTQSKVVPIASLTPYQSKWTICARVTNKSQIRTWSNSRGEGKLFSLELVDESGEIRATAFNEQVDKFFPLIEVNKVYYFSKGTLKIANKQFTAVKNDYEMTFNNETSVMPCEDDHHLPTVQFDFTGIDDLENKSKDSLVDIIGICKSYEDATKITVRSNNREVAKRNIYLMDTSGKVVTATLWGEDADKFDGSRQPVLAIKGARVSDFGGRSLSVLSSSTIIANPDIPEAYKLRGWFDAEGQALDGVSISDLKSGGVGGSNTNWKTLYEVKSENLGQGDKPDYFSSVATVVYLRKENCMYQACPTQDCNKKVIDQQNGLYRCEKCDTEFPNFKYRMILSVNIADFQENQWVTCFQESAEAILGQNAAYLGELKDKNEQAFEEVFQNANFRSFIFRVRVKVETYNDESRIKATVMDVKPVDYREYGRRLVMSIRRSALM
UniProt P15927: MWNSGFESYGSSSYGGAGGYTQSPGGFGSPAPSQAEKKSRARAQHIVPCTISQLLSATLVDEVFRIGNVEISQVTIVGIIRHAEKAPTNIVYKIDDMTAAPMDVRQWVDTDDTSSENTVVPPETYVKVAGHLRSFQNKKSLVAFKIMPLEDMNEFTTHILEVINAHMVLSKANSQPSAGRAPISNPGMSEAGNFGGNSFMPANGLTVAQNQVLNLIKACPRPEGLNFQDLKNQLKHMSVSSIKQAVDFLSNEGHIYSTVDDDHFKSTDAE

Molecular target: Cell division cycle 20 (CDC20) (human (endogenous in KYSE450 and KYSE200)) (UniProt Q12834)
Assay: co-IP; cells treated with 0 Gy (control) or 5 Gy X-ray; total lysates in RIPA buffer, CDC20 antibody 12 h at 4 °C, Protein G Sepharose; immunoprecipitates blotted for RPA1 and RPA2

| binding | Substance |
| --- | --- |
| binds | RPA1 (from UniProt P27694 1-616) |
| binds | RPA2 (from UniProt P15927 1-270) |
